Reference: US8293724B2, “Therapeutic applications of fatty acid amide hydrolase inhibitors” (The United States of America, as represented by the …, priority 2007, dated 2012)
The name of at least one read-out is uncertain.

Assays:
[1] = tested on: liver-specific CB1 receptor knockout mice; test: Intraperitoneal glucose tolerance test in liver-specific CB1 receptor knockout mice on high-fat diet; assay type: in vivo; details: URB597 10 mg/kg i.p., liver-specific CB1 knockout mice on HFD, n=4; vehicle 480±62
Protocol: (§1) Male C57Bl6/J mice, wild-type or liver-specific CB1 receptor knockout, were kept on a diet containing 60% of calories as fat (Research Diets Inc) for 14 weeks, by which time both strains have become fat due to increased adipose mass. […] Sixty minutes later the mice received 1.5 g/kg glucose i.p. and blood glucose levels were monitored for 2 hours.

[2] = tested on: male DIO mice (wild-type C57Bl6/J on high-fat diet); test: Intraperitoneal glucose tolerance test in wild-type mice with diet-induced obesity; assay type: in vivo
Protocol: as §1

SMILES	glucose tolerance test AUC [1] [mg·h/dL]	glucose tolerance test AUC ([2]; URB597 10 mg/kg i.p., n=11, vehicle 322±37) [mg·h/dL]	glucose tolerance test AUC ([2]; AM3506 1 mg/kg i.p., n=7) [mg·h/dL]
NC(=O)c1cccc(-c2cccc(OC(=O)NC3CCCCC3)c2)c1 [URB597]	422 ± 59	464127	–
O=S(=O)(F)CCCCCc1ccc(O)cc1 [AM3506]	–	–	343 ± 50
